For one substance, binding results are on record in paper PMC10352258.

Amino acid sequences for entries named in this document (tags omitted). A change or cut given only in a name is not applied to a line headed by its entry.
UniProt O00560: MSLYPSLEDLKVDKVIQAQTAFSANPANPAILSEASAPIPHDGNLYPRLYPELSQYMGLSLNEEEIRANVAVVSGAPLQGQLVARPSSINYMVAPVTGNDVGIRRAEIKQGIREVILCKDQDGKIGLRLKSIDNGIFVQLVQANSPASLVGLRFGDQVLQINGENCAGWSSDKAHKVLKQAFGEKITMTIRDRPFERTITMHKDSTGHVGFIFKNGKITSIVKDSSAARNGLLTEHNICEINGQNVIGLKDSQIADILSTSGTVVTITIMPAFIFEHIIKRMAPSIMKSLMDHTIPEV

These are yes or no findings as the source states them, for the method shown. Binding seen in cells or lysates may run through a third protein. For some assays here: A result given as binding can be weak or reduced; the word gives no strength.

The target in one assay is Flag-tagged SDCBP-△PDZ1 (UniProt O00560). As to the kind of experiment: co-IP; ESCC cells cotransfected with Flag-tagged SDCBP (wild type or truncation mutants) and Myc-tagged HSP90 (wild type or mutants).
In another assay the target is Flag-tagged SDCBP-△PDZ2 (UniProt O00560). Described as above.

Regarding “Myc-tagged HSP90 (wild type) (from UniProt P07900-2 1-854)”, the binding result with Flag-tagged SDCBP-△PDZ1 is “binds”; in the assay with Flag-tagged SDCBP-△PDZ2, “no binding”.
